Test results published in paper PMC11589101, “Profiling the endocrine-disrupting properties of triazines, triazoles, and short-chain PFAS” (Toxicological Sciences, 2024).
Some entries repeat one wording, which the source may state once for all of them.

Test system: ER, AR, TR, TTR binding, H295R
Experiment: In vitro hazard profiling over all readouts (ER, AR, TR, TTR, H295R)
Conditions: cutoff values of Table 2

| Structure (SMILES) | in vitro hazard profile (response category over all readouts) |
| --- | --- |
| c1nc[nH]n1 [1,2,4-Triazole] | no response in any of the assays |
| CCNc1nc(NC(C)C)nc(SC)n1 [Ametryn] | strong response in at least 2 readouts |
| CC(C)(C)C(O)C(Oc1ccc(-c2ccccc2)cc1)n1cncn1 (stereo not drawn) [Bitertanol] | strong response in at least 2 readouts |
| CC1COC(Cn2cncn2)(c2ccc(Oc3ccc(Cl)cc3)cc2Cl)O1 (stereo not drawn) [Difenoconazole] | strong response in at least 2 readouts |
| N#CC(CCc1ccc(Cl)cc1)(Cn1cncn1)c1ccccc1 (stereo not drawn) [Fenbuconazole] | strong response in at least 2 readouts |
| CC(C)(C)C(O)(CCc1ccc(Cl)cc1)Cn1cncn1 (stereo not drawn) [Tebuconazole] | strong response in at least 2 readouts |
| FC(F)C(F)(F)OCC(Cn1cncn1)c1ccc(Cl)cc1Cl (stereo not drawn) [Tetraconazole] | strong response in at least 2 readouts |
| O=C(O)Cn1cncn1 [Triazole acetic acid] | no response in any of the assays |
| NC(Cn1cncn1)C(=O)O (stereo not drawn) [Triazole alanine] | no response in any of the assays |
